Experimental data published in patent US20030092157.

Tested on: LXRα/RXR heterodimer (expressed in Cos-1)
Test: activity in cells
Conditions: protein in cells, only the site is given

“AGATCACTTGAGGTCA (double strand) [-7188 LXRE (ABC1 intron 1)]” was tested, and the “activity on this sequence” value (2 copies, weaker activation) was “less active”.
For “AGGTTACTATCGGTCA (double strand) [+4-LXRE (ABC1 exon 1/promoter)]”, the “activity on this sequence” value (2 copies, strong activation) was “active”.
“GGATCACCTGAGGTCA (double strand) [-11050 LXRE (ABC1 intron 1)]” was tested, and the “activity on this sequence” value (4 copies, weaker activation) was “less active”.

Weaker means in comparison with the reference protein, sequence or condition of that experiment.
